From the supplement of paper PMC10849652
The list shows a part of the results.

Sequences of proteins named here, by UniProt entry; tags and fusion partners are left off. A change or cut given only in a name is not applied to a line headed by its entry.
UniProt P06493, whole entry, looked up: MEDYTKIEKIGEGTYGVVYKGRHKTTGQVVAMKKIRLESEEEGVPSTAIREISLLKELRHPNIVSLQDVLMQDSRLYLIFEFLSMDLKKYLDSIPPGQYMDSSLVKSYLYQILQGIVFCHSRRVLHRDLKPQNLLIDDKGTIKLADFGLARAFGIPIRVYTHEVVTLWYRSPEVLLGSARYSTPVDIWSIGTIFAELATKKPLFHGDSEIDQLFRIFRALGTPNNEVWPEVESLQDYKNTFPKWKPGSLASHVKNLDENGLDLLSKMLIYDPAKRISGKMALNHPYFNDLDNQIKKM
UniProt Q16543: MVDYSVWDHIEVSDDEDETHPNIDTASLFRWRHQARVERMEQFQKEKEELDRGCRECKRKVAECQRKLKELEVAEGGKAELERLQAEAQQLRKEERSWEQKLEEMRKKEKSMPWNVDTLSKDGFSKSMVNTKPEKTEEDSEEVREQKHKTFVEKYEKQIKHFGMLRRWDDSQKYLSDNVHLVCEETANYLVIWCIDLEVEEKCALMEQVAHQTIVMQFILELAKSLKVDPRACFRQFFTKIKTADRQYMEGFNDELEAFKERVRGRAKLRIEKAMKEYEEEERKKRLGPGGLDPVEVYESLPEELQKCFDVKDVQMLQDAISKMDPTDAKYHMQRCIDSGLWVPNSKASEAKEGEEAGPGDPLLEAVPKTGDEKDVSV
UniProt Q9NXV6: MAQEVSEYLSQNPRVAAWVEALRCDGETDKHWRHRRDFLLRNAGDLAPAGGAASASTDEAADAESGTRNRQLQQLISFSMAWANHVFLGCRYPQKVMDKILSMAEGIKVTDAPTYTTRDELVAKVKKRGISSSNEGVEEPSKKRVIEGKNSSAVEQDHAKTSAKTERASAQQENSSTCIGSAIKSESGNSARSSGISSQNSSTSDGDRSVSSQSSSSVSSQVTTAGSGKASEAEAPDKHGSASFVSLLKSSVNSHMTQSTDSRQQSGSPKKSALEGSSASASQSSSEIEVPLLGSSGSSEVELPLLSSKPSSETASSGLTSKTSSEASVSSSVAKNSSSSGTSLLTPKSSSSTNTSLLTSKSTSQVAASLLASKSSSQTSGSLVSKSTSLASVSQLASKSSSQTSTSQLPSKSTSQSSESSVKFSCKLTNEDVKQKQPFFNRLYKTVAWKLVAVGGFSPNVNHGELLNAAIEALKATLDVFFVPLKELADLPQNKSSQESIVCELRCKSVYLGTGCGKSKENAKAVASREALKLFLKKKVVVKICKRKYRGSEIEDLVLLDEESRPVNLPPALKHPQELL
UniProt Q6ZU80: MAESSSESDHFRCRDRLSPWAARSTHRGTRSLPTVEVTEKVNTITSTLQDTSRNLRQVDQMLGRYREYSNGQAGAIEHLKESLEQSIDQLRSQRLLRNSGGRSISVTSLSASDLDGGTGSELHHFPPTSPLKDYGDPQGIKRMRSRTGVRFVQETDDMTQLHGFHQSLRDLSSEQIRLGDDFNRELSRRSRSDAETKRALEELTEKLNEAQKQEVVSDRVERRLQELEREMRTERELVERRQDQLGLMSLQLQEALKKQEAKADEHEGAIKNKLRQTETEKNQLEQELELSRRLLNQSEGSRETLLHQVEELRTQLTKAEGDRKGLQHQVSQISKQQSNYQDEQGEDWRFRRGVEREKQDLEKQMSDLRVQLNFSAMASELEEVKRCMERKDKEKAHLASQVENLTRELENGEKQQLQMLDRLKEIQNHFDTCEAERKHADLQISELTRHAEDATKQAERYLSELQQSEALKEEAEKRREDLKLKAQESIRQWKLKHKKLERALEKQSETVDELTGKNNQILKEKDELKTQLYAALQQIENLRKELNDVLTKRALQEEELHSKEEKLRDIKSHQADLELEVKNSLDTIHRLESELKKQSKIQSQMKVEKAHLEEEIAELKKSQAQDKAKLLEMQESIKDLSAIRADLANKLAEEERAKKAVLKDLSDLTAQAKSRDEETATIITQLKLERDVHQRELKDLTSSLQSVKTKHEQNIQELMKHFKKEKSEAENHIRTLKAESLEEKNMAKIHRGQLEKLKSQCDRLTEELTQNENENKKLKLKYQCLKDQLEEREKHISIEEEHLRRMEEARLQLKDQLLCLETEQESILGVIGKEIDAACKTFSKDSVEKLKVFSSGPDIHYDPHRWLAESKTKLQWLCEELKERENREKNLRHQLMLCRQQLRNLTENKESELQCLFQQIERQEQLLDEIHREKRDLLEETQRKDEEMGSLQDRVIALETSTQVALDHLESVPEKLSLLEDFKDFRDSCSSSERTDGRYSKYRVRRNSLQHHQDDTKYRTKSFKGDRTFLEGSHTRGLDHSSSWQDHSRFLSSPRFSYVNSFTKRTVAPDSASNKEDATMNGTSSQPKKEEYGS
UniProt O15078: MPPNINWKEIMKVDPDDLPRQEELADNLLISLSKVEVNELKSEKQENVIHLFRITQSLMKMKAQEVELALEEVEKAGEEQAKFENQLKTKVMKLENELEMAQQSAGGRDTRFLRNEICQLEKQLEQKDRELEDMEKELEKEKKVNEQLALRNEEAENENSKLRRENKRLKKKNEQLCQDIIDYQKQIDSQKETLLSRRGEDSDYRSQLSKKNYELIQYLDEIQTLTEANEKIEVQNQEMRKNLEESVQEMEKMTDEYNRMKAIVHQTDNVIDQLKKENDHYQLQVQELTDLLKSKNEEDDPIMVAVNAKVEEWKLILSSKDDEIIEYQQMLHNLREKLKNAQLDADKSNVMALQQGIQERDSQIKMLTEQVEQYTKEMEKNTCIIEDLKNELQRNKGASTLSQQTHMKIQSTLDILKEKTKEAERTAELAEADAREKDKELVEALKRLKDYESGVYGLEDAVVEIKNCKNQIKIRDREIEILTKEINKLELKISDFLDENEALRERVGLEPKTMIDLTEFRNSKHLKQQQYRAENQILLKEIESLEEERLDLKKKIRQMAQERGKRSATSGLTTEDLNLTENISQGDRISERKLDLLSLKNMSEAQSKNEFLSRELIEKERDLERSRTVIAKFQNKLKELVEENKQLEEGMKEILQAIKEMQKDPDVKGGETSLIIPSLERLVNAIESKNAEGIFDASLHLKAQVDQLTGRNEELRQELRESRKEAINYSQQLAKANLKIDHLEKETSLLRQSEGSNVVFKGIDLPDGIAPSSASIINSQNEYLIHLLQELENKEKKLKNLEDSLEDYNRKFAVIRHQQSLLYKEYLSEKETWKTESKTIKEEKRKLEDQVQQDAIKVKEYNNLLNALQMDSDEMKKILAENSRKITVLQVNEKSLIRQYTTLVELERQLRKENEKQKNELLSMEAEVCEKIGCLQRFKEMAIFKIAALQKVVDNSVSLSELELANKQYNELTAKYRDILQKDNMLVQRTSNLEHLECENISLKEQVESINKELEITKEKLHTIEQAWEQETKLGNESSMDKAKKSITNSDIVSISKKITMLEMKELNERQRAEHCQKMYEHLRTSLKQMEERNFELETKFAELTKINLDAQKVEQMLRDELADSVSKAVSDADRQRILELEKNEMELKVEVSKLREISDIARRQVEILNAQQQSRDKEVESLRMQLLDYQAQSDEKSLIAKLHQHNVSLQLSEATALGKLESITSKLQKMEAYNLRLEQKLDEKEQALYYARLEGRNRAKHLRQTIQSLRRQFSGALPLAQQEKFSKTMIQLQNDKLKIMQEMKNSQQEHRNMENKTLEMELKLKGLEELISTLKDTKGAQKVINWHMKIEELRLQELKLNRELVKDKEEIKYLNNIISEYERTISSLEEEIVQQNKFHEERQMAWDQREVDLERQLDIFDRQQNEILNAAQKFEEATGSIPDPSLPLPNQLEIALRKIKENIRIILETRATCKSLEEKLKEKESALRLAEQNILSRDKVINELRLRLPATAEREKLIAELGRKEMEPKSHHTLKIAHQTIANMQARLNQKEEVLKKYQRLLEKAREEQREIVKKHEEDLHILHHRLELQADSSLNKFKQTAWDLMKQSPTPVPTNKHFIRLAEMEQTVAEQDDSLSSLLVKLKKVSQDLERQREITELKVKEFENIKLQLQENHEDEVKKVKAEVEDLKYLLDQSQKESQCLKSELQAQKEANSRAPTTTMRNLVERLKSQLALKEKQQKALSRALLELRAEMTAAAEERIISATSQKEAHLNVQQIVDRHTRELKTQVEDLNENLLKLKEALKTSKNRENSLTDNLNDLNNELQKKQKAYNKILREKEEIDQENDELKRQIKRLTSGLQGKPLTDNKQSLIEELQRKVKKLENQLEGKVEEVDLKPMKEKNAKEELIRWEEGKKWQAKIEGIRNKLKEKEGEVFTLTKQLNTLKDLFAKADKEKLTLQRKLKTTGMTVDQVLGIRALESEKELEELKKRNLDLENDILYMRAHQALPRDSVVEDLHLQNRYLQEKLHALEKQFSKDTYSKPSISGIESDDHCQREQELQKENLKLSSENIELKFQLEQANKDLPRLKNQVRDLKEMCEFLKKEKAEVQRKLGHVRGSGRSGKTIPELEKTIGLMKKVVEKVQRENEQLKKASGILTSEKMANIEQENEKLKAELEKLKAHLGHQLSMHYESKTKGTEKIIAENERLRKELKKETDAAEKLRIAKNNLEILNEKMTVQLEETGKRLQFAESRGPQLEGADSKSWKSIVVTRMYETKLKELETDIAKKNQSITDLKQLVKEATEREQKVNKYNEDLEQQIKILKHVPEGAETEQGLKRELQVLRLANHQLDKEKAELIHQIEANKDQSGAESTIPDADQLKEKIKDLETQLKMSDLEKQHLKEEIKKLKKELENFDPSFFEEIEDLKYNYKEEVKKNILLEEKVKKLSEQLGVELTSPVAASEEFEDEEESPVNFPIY
UniProt Q15517: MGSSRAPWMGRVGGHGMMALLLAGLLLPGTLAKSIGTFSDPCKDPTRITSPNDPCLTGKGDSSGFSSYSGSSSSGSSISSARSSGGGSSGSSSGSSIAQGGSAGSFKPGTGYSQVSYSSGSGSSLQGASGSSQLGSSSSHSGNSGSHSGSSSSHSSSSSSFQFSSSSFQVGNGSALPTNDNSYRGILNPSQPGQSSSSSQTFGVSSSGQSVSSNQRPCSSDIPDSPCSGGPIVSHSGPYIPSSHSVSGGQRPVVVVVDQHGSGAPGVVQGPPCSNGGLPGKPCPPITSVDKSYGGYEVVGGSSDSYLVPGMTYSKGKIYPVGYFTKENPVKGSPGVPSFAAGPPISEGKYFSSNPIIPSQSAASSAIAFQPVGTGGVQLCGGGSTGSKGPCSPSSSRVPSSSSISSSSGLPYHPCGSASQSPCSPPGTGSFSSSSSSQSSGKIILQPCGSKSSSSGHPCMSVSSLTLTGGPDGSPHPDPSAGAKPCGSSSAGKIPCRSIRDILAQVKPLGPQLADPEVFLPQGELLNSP
UniProt Q8NHZ8, whole entry, looked up: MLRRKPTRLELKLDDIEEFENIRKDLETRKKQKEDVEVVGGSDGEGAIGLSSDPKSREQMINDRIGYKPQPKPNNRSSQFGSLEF
UniProt Q76N32: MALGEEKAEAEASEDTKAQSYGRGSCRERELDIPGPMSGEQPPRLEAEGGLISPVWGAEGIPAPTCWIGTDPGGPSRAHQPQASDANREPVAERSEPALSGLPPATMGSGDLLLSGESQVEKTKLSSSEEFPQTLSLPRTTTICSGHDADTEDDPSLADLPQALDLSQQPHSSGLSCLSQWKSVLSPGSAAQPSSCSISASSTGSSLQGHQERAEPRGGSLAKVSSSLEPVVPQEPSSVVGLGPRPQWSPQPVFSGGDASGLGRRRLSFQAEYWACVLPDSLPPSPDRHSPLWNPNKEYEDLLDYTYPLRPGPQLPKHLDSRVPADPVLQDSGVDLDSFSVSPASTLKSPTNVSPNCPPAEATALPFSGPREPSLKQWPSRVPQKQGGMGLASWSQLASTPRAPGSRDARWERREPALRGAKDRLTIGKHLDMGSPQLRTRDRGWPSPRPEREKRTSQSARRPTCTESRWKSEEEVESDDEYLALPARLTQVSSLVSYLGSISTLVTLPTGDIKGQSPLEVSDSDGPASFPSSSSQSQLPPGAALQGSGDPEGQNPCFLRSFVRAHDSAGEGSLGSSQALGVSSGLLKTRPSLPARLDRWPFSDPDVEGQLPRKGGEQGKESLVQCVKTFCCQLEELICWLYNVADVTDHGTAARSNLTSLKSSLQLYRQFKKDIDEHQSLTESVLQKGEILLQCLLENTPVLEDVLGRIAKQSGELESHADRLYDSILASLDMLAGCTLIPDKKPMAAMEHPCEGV
UniProt P53567: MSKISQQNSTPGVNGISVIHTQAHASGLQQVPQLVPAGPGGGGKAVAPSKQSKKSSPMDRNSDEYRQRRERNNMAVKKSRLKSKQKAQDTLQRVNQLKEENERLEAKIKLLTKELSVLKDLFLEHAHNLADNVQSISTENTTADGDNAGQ
UniProt P14209: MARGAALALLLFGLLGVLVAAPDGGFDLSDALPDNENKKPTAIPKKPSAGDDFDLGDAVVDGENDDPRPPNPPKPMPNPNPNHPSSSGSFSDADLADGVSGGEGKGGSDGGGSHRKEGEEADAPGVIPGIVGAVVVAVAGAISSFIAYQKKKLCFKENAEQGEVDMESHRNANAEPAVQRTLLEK

Assays:
Assay in all cases: log2 fold change, soluble protein after heating vs DMSO (PISA); higher = thermal stabilisation; K562 lysate, 10 uM; active = over 0.2 and 3.5 SD of the protein, either way, in both replicates (recomputed)
[1] = compound: C1=CC=C(C=C1)[C@H](COC2=CC3=C(C=C2)NC(=O)N3)NC(=O)C4=CC=CN(C4=O)CC5=CC(=C(C=C5)F)F
How it was run: (§1)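 The values are log-two fold changes in thermal stability compared with solvent controls and come from duplicates. They were obtained by TMTpro 16plex LC-MS/MS, with channel sums equalised, on the supernatant after 21,000xg for 90 min. That supernatant came from crude K562 extract at 1 mg/mL protein treated with 10 μM compound for 30 min, heated for 3 min across 48°C-58°C, pooled and brought to 0.5% NP-40 at 4°C.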

[2] = compound: CC1=C(SC2=C1C(=N[C@H](C3=NN=C(N32)C)CC(=O)N)C4=CC=C(C=C4)Cl)C
How it was run: as §1

[3] = compound: Cc1sc2c(c1C)C(c1ccc(Cl)cc1)=N[C@@H](CC(=O)OC(C)(C)C)c1nnc(C)n1-2
How it was run: as §1

[4] = compound: c1ccc([C@@H]2C[C@H]2NC2CCNCC2)cc1
How it was run: as §1

[5] = compound: CC1=C2C(=CC=C1)N=C(N(C2=O)C3=CC=CC=C3C)CN4C=NC5=C(N=CN=C54)N
How it was run: as §1

Measured: log2 fold change

CDC27 (UniProt G5EA36)
inactive: [1] 0.141 | [2] 0.031 | [3] 0.066 | [4] 0.14

CDK1 (UniProt P06493)
inactive: [1] 0.037 | [2] -0.009 | [5] 0.042 | [3] 0.021 | [4] 0.018

CDC37 (UniProt Q16543)
inactive: [1] 0.011 | [2] -0.003 | [5] -0.058 | [3] 0.005 | [4] 0.012

CDC20 (UniProt Q12834)
inactive: [1] 0.067 | [2] 0.023 | [5] -0.077 | [3] -0.117 | [4] 0.014

CEP170 (UniProt Q5SW79)
inactive: [1] 0.024 | [2] 0.021 | [5] 0.059 | [3] 0 | [4] 0.019

CFL2 (UniProt Q9Y281)
inactive: [1] 0.017 | [2] 0.017 | [5] -0.037 | [3] 0.003 | [4] -0.054

CDKN2AIP (UniProt Q9NXV6)
inactive: [1] 0.01 | [2] 0.024 | [5] 0.027 | [3] -0.041 | [4] -0.013

CEP128 (UniProt Q6ZU80)
inactive: [1] -0.38 | [2] 0.338 | [5] -0.023 | [3] -0.125 | [4] -0.507

CDK2AP2 (UniProt O75956)
inactive: [1] 0.046 | [2] -0.101 | [5] 0.092 | [3] 0.074 | [4] -0.216

CDS2 (UniProt O95674)
inactive: [1] 0.01 | [2] 0.004 | [5] -0.056 | [3] -0.034 | [4] -0.024

CEP290 (UniProt O15078)
inactive: [1] -0.056 | [2] 0.097 | [5] 0.055 | [3] -0.09 | [4] 0.024

CDK17 isoform 2 (UniProt Q00537)
inactive: [1] 0.072 | [2] 0.099 | [5] 0.109 | [3] 0.072 | [4] -0.146

CDC42EP4 (UniProt Q9H3Q1)
inactive: [1] 0.113 | [2] -0.084 | [5] -0.098 | [3] 0.004 | [4] -0.036

Taken from above (two entries):
CDS2 (UniProt O95674)
inactive: [1] 0.01 | [2] 0.004 | [5] -0.056 | [3] -0.034 | [4] -0.024

CEP290 (UniProt O15078)
inactive: [1] -0.056 | [2] 0.097 | [5] 0.055 | [3] -0.09 | [4] 0.024

Going on with the list:

CDSN (UniProt Q15517)
inactive: [1] -0.217 | [2] 0.11 | [5] -0.076 | [3] -0.094 | [4] 0.02

CDC26 (UniProt Q8NHZ8)
inactive: [1] 0.161 | [2] 0.001 | [5] -0.203 | [3] -0.177 | [4] -0.016

CEP295 isoform 3 (UniProt Q9C0D2)
inactive: [1] -0.154 | [2] 0.045 | [4] 0.024

CEP68 (UniProt Q76N32)
inactive: [3] 0.093

CEBPG (UniProt P53567)
inactive: [1] 0.206 | [2] 0.116 | [4] -0.055

CDC42EP2 (UniProt O14613)
inactive: [5] 0.222

CDC42BPG (UniProt Q6DT37)
inactive: [3] -0.052

CD99 (UniProt P14209)
inactive: [5] -0.065 | [3] 0.077 | [4] -0.025
